In article PMC8120818 one finds binding data, which are given here for one molecule.

Protein sequences, listed by entry. Tags and fused reporters are not part of them.
UniProt P01106: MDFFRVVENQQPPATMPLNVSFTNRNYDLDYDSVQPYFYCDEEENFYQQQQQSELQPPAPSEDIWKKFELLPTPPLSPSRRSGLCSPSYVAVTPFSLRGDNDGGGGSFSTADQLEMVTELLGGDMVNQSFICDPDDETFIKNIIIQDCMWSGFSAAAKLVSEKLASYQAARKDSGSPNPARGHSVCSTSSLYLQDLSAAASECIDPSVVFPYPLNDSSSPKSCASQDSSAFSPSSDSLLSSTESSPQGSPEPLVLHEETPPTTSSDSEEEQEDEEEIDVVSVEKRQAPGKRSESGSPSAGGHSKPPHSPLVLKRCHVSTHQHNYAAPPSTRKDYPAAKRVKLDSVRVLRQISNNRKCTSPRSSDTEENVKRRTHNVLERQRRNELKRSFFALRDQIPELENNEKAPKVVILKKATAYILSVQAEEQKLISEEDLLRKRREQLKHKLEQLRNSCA

The assay has as its target c-Myc (myelocytomatosis virus oncogene cellular homolog) (human (endogenous in human cell lines; line not stated)) (UniProt P01106). As to the kind of experiment: co-IP; cells lysed in RIPA buffer with 1% PMSF and 1% protease inhibitor; 5 ug primary antibody (METTL13, abcam ab186002; c-Myc, Santa Cruz sc-40) or homologous IgG with lysate at 4 °C overnight; protein A/G beads 1 h at 4 °C, washed three times; western blot; cell line not stated. For orientation: Immunoblotting shows a protein as a band on a membrane.

No constants are given. Whether binding was seen depends on the method and setting. Binding seen in cells or lysates may run through a third protein. Some results given as binding are weak or reduced against the parent protein; the word gives no strength.

B1: Methyltransferase like 13 (METTL13) (protein, UniProt Q8N6R0 1-699)
chain: MNLLPKSSREFGSVDYWEKFFQQRGKKAFEWYGTYLELCGVLHKYIKPREKVLVIGCGNSELSEQLYDVGYRDIVNIDISEVVIKQMKECNATRRPQMSFLKMDMTQMEFPDASFQVVLDKGTLDAVLTDEEEKTLQQVDRMLAEVGRVLQVGGRYLCISLAQAHILKKAVGHFSREGWMVRVHQVANSQDQVLEAEPQFSLPVFAFIMTKFRPVPGSALQIFELCAQEQRKPVRLESAERLAEAVQERQQYAWLCSQLRRKARLGSVSLDLCDGDTGEPRYTLHVVDSPTVKPSRDNHFAIFIIPQGRETEWLFGMDEGRKQLAASAGFRRLITVALHRGQQYESMDHIQAELSARVMELAPAGMPTQQQVPFLSVGGDIGVRTVQHQDCSPLSGDYVIEDVQGDDKRYFRRLIFLSNRNVVQSEARLLKDVSHKAQKKRKKDRKKQRPADAEDLPAAPGQSIDKSYLCCEHHKAMIAGLALLRNPELLLEIPLALLVVGLGGGSLPLFVHDHFPKSCIDAVEIDPSMLEVATQWFGFSQSDRMKVHIADGLDYIASLAGGGEARPCYDVIMFDVDSKDPTLGMSCPPPAFVEQSFLQKVKSILTPEGVFILNLVCRDLGLKDSVLAGLKAVFPLLYVRRIEGEVNEILFCQLHPEQKLATPELLETAQALERTLRKPGRGWDDTYVLSDMLKTVKIV
Consider B1, for which the binding result is listed as “binds”.
